# Library compounds against nucleic acid targets

Data from the ROBIN nucleic acid binder screens, doi:10.1002/anie.202211358.

Targets, with sequences 5′ to 3′:
SAM-II: SAM-II riboswitch RNA pseudoknot, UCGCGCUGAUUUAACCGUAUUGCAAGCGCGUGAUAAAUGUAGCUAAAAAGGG. Hit rate about 1% of about 21,000 compounds.
PreQ1: PreQ1 riboswitch RNA pseudoknot, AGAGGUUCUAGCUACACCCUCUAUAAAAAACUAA. From B. subtilis. Hit rate about 0.7% of about 24,000 compounds.
TPP: TPP riboswitch RNA three-way junction, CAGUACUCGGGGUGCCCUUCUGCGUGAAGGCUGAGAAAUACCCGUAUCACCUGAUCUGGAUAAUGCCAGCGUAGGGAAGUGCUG. Hit rate about 0.7% of about 24,000 compounds.

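The test is a small-molecule microarray: each compound is printed twice on a reactive slide, and binding shows as fluorescence of the labelled oligonucleotide after washing. The data file lists only calls. An earlier report of the laboratory on the PreQ1, TPP and SAM-II riboswitches (doi:10.1038/s41467-019-09493-3) used 1 µM RNA for 2 h and required a mean Z-score above 3 (spot signal-to-noise against the whole library), a score well above that on a control array, and duplicate spots agreeing (coefficient of variation under 100); it then also set aside compounds that hit other targets, which this list keeps. The cut-offs behind this list may differ. These are primary screening calls, not affinities; a compound without a hit may have attached poorly or may still bind in solution.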
“1” means called a hit, “0” means screened and not called a hit.
This is an unselected part of the compounds tested.
A target missing from an entry has no call listed here.
A dash means that no call is listed here.

Compound | SAM-II | PreQ1 | TPP
COc1ccc2cc(-c3cc(-c4cnc(N)nc4)c(C#N)c(N)n3)ccc2c1 | 0 | 0 | 0
Cc1ccc2ncnc(Nc3cccc(C(F)(F)F)c3)c2c1 | 0 | 0 | 0
CCN(Cc1ccccc1)C(=O)c1sc2nc(C)cc(C)c2c1N | 0 | 0 | 0
COc1cc2ncn(-c3cc(OCc4ccccc4C(F)(F)F)c(C(N)=O)s3)c2cc1OC | 0 | 0 | 0
Cn1cnc2c(F)c(Nc3ccc(Br)cc3Cl)c(C(=O)NOCCO)cc21 | 0 | 0 | 0
Nc1nc2ccc(OC(F)(F)F)cc2s1 | 0 | 0 | 0
O=S(=O)(c1ccccc1)c1nnn2c1nc(NCC1CCCO1)c1cc(Cl)ccc12 (centres undefined) | 0 | 0 | 0
CNCc1cnccn1 | 0 | 0 | 0
COc1cccc(-c2[nH]c3c(C#N)cnn3c2NC2CCCCCCC2)c1 | - | 0 | 0
N=c1n(CCO)c2ccccc2n1CCOc1ccccc1 | 0 | 0 | 0
COc1ccc(CNCCC(Cc2ccccc2)c2ccco2)cc1OC (centres undefined) | 0 | 0 | 0
CCCCCCCc1ccc(CCc2cccc(O)c2C(=O)O)cc1 | 0 | 0 | 0
Cc1ccc(NC2OC(=O)c3ccccc32)cc1Cl (centres undefined) | 0 | 0 | 0
CCC(NC(=O)c1cn([C@H]2CC[C@@H](N)CC2)nn1)c1cn2cccnc2n1 (some centres undefined) | 0 | 0 | 0
Cc1[nH]nc(CCC(=O)N[C@H]2CC[C@H]2NC2CCCCC2)c1C | 0 | 0 | 0
O=C(Nc1ccc(Cl)c(Cl)c1)Nc1ccc([N+](=O)[O-])cn1 | 0 | 0 | 0
CCOc1ccc([C@@H]2C[C@H](c3ccccc3OC)n3nc(N)nc3N2)cc1 | 0 | 0 | 0
COc1ccc(Cn2nnc(C(=O)Nc3cc(C)ccc3OC)c2N)cc1Br | 0 | 0 | 0
Cc1ccc(CC(=O)NCCN2CCCCC2CO)cc1 (centres undefined) | 0 | 0 | 0
Cc1ccccc1NC(=O)c1sc2nc3c(cc2c1N)CCCC3 | 0 | 0 | 0
Nc1ccccc1Sc1nc(Br)nn1Cc1ccccc1 | 0 | 0 | 0
COC(=O)CNC(c1ccccc1Cl)c1cc(Br)ccc1NC(=O)c1ccccc1 (centres undefined) | 0 | 0 | 0
OCCOc1ccccc1O | 0 | 0 | 0
CCc1ccc(Nc2nc(C)cc(C)c2C(N)=O)cc1 | 0 | 0 | 0
CC1CC(Nc2ccccc2)c2ccccc2N1C(=O)c1ccc(NS(C)(=O)=O)cc1 (centres undefined) | 0 | 0 | 0
Cc1ccc(Cl)cc1-n1c(CCN)n[nH]c1=O | 0 | 0 | 0
CCC(O)c1nc2ccccc2n1CCc1ccccc1 (centres undefined) | - | 0 | 0
Cc1ccc(C)c(Cn2c(C(=O)O)c(CNCCN3CCOCC3)c3ccccc32)c1 | - | 0 | 0
COC(=O)c1c(-c2ccc(Cl)cc2)csc1N | 0 | 0 | 0
C=CCn1c(SCCO)nc2c(c1=O)C1(CCCCC1)Cc1ccccc1-2 | - | 0 | 0
COc1cc(CNCCNCC(C)O)cc(Br)c1OC.Cl.Cl (centres undefined) | 0 | 0 | 0
O=C1OC(Nc2nc(-c3ccc(F)cc3)cs2)c2ccccc21 (centres undefined) | 0 | 0 | 0
Cc1cc(Nc2ccccc2)n2nc(-c3ccccc3)nc2n1 | - | 0 | 0
COCCOC(=O)C1=C(N)OC2=C(C(=O)CCC2)C1c1ccccc1Cl (centres undefined) | 0 | 0 | 0
Clc1ccc(COC(Cn2ccnc2)c2ccc(Cl)cc2Cl)cc1 (centres undefined) | 0 | 0 | 0
OCC(CNc1cc(-c2ccccc2)nc2ccnn12)Cc1ccsc1 (centres undefined) | 0 | 0 | 0
Cc1ccc(NC(=O)Cn2nnc(C(=O)NCCc3ccccc3)c2N)cc1 | 0 | 0 | 0
Cc1ccc(C)c(OCC(=O)N2CCC3(CCCN(CCO)C3=O)C2)c1C (centres undefined) | 0 | 0 | 0
O=C(O)[C@H](CO)n1cc(-c2cnc(C3CCCCC3)nc2)nn1 | 0 | 0 | 0
CCOc1ccc(NS(=O)(=O)c2cc(Br)cnc2N)cc1 | - | 0 | 0
CCC(=O)C1=C(NCCc2nc3ccccc3[nH]2)CC(c2ccccc2)CC1=O (centres undefined) | 0 | 0 | 0
CC1=C(c2cccc(Cl)c2)S(=O)(=O)N=C1NCCC(C)C | - | 0 | 0
COCCNc1cc(-c2ccccc2)nc2c(-c3ccccc3)c(C)nn12 | - | 0 | 0
CS(=O)(=O)NCC(O)Cn1c2ccccc2c2ccccc21 (centres undefined) | 0 | 0 | 0
COC(=O)[C@@H]1CCCN1c1nc(CCN)nc2ccccc12 | 0 | 0 | 0
COc1cccc(CNC2CN3CCC2CC3)c1OC (centres undefined) | 0 | 0 | 0
CCOC(=O)c1cnc(C)nc1Nc1cc(C)ccc1O | - | 0 | 0
COc1ccc(-c2cc(NCc3ccc(C)cc3)n3cnnc3n2)cc1 | - | 0 | 0
CCOC(=O)C1(C)C=C(Nc2ccc(OC)cc2)C(=O)N1c1ccc(OC)cc1 (centres undefined) | 0 | 0 | 0
c1ccc(OCCN2CCN(CC3CCCNC3)CC2)cc1 (centres undefined) | 0 | 0 | 0
COc1ccc(C2C(C#N)=C(N)OC3=C2S(=O)(=O)N(Cc2ccc(F)cc2)c2ccccc23)cc1 (centres undefined) | - | 0 | 0
COc1ccc(CNCc2c(C(=O)O)[nH]c3cc(OC)ccc23)cc1 | - | 0 | 0
COc1ccc(OC)c(S(=O)(=O)NCC2CNCCOC2)c1 (centres undefined) | 0 | 0 | 0
O=C(N[C@H]1CCNC1)c1ccc(S(=O)(=O)NCCn2ccnc2)cc1 | 0 | 0 | 0
Cc1ccccc1NC(=O)c1sc2nc3c(cc2c1N)CN(C)CC3 | 0 | 0 | 0
Cl.N=c1n(CCN2CCOCC2)c2ccccc2n1CC(O)c1cccs1 (centres undefined) | 0 | 0 | 0
COCCOC(=O)C1=C(N)OC2=C(C(=O)CC(C)(C)C2)C1c1ccccc1 (centres undefined) | 0 | 0 | 0
CC1CCCC(Nc2ncnc3onc(-c4ccc(F)cc4)c23)C1C (centres undefined) | - | 0 | 0
CCCc1nnsc1C(=O)N1C[C@H](CO)C[C@H](CN2CCOCC2)C1 | 0 | 0 | 0
CCCc1cc(NCC(C)C)n2ncc(-c3ccccc3)c2n1 | - | 0 | 0
Fc1ccc(-c2noc3ncnc(Nc4ccc5c(c4)OCCO5)c23)cc1 | - | 0 | 0
O=C1NC(C(=O)NCCNc2cccnc2)Cc2ccccc21 (centres undefined) | 0 | 0 | 0
CCOC(=O)c1ccc(N2C(=O)CC(NC3CCCCC3)C2=O)cc1 (centres undefined) | 0 | 0 | 0
CCNc1oc(-c2ccccc2)nc1S(=O)(=O)c1ccc(Cl)cc1 | - | 0 | 0

The last 6 entries again:

* CCCc1nnsc1C(=O)N1C[C@H](CO)C[C@H](CN2CCOCC2)C1 : SAM-II: 0; PreQ1: 0; TPP: 0
* CCCc1cc(NCC(C)C)n2ncc(-c3ccccc3)c2n1 : PreQ1: 0; TPP: 0
* Fc1ccc(-c2noc3ncnc(Nc4ccc5c(c4)OCCO5)c23)cc1 : PreQ1: 0; TPP: 0
* O=C1NC(C(=O)NCCNc2cccnc2)Cc2ccccc21 (centres undefined) : SAM-II: 0; PreQ1: 0; TPP: 0
* CCOC(=O)c1ccc(N2C(=O)CC(NC3CCCCC3)C2=O)cc1 (centres undefined) : SAM-II: 0; PreQ1: 0; TPP: 0
* CCNc1oc(-c2ccccc2)nc1S(=O)(=O)c1ccc(Cl)cc1 : PreQ1: 0; TPP: 0